These are yes or no findings as the source states them, for the method shown. Binding seen in cells or lysates may run through a third protein. Some entries that bind do so weakly or less than the wild type.
How the values were obtained:
FGGY protein (human) [1] = target: T1, FGGY protein (human) (UniProt Q96C11); assay: reciprocal co-immunoprecipitation from HeLa and HEK293 lysates, Western blot
T1 sequence: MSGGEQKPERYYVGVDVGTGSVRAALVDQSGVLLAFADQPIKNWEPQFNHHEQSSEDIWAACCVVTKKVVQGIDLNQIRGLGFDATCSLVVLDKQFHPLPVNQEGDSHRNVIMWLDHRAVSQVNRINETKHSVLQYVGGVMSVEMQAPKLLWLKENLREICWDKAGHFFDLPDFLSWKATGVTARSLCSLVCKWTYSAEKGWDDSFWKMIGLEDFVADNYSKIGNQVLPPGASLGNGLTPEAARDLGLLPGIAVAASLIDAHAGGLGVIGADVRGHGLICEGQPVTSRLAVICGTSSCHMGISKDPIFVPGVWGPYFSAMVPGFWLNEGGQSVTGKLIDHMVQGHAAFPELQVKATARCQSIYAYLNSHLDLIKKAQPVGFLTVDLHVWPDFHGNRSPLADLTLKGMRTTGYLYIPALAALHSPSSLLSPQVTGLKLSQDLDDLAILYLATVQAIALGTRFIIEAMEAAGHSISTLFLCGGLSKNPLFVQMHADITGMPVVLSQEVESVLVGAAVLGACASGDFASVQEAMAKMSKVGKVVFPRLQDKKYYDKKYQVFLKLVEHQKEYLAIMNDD

Amino acid sequences for entries named in this document (tags omitted). Residues count along the entry.
UniProt P07910, residues 2-306: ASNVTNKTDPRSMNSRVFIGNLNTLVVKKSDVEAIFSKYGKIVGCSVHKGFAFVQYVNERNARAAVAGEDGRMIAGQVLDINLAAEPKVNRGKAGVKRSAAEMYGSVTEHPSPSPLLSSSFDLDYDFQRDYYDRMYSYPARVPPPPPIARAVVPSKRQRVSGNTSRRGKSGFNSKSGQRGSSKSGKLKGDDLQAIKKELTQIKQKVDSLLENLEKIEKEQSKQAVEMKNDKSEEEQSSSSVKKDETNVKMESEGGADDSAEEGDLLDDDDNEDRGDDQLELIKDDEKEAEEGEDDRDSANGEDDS

FGGY protein (human) [2] = target: T1, FGGY protein (human); assay: reciprocal co-immunoprecipitation from cell lysates under stringent conditions, Western blot
FGGY protein (human) [3] = target: T1, FGGY protein (human); assay: immunoprecipitation of endogenous FGGY from cell lysates, LC-MS/MS of the precipitate (results not shown)

Measured: binding

heterogenous nuclear ribonucleoprotein C (HnRNP C) (from UniProt P07910 2-306)
binds: all assays above

From patent US20160033535A1
